# Paper PMC6759994
# No constants are given. Whether binding was seen depends on the method and setting. Binding seen in cells or lysates may run through a third protein. These calls come from enrichment with a bait or labelling near it, and not all partners need be listed.
# Biological target: RNase J2 with a C-terminal 3x FLAG tag, chromosomally encoded in S. mutans (strain J2F) (Streptococcus mutans UA159)
# Assay: affinity purification with mass spectrometry; mid-log S. mutans crosslinked in vivo with formaldehyde; cytoplasmic and membrane fractions; RNase J2-3x FLAG purified on anti-FLAG M2 affinity gel, eluted with 3x FLAG peptide; LC/MS; enrichment against the untagged wild type
row,binding,Binder
1,binds,"RNA helicase (CshA), endogenous in S. mutans (enzyme, UniProt Q8DV90 1-517) MKFTELHLAEDILSAVAKVGFVEPSPIQELTIPLALEGKDVIGQAQTGTGKTAAFGLPTLNKIDVTNNVVQALVIAPTRELAVQSQEELFRFGREKKVKVRSVYGGSSIEKQIKALKSGAHIVVGTPGRLLDLIKRKALKLNHVETLILDEADEMLNMGFLEDIEAIISRVPETRQTLLFSATMPDAIKRIGVKFMKEPEHVKIAAKELTTDLVDQYYIRVKENEKFDTMTRLMDVEQPELSIVFGRTKRRVDELTRGLKLRGYRAEGIHGDLDQGKRLRVLRDFKNDNLDILVATDVAARGLDISGVTHVYNYDIPQDPESYVHRIGRTGRAGKHGQSITFVAPNEMGYLQIIEKLTKKRMKGMKPATAQEAFQASKKVALKKIERDFADEKIRSNFDKFTKDAEKLAAEFSPEELAQYILTLTVQDPEMLPKVEIAREKPLPFKFAGKGKGGNRRREDRRGGRDSRRNHRDGGRREFKRTSNKNRKDFENKSNKRPHRTSSEKKSGFTIRNKGDR"
2,binds weakly,"Cell division GTPase FtsZ, endogenous in S. mutans (protein, UniProt Q8DVD9 1-434) MAFSFDAASVQGAVIKVIGVGGGGGNAINRMIDEGVAGVEFIAANTDIQALSSSKAETVIQLGPKLTRGLGAGGQPEIGRKAAEESEEALTEALTGADMVFITAGMGGGSGTGAAPVIARIAKGLGSLTVAVVTRPFGFEGSKRGNYAIEGINELRDEVDTLLIISNNNLLEIVDKKTPLLEALSEADNVLRQGVQGITDLITSPGLINLDFADVKTVMASKGNALMGIGIGTGEERVVEAARKAIYSPLLETTIDGAEDVIVNVTGGLDMTLTEAEEASEIVNQAAGHGVNIWLGTSIDDSMKDEIRVTVVATGVRPDKADQVSGIRRQASSYTQPRAQQQAPSSNSAQPNFERRQNFDFDLNESPEMPAAEPQQTQSSSEPQQSAFGDWNLRRENIARPTEGEIDSQLKMSSFSADSDDDDELETPPFFKNR"
